This assay has as its system nude mice, LX-1 lung xenograft intrarenal, tumor weight T/C. Kind of assay: NCI In Vivo Anticancer Drug Screen. Data for tumor model Human Lung LX-1 Xenograft (intrarenal inoculation) in NU/NU Swiss (nude) mice. The settings on record: T/C endpoint: mean tumor weight change; dose: 0.25 mg/kg/injection; schedule: Q01DX010 (sc); vehicle: saline; evaluated on day 11; higher T/C = larger tumour. As to the method:
The antitumor activity of compounds was measured in mice bearing transplantable tumors. Survival or tumor size were measured and the results are expressed as the measurement made in the treated group (T) divided by the measurement made in the vehicle treated control group (C). The tumor model used in this assay is Human Lung LX-1 Xenograft (intrarenal inoculation) in NU/NU Swiss (nude) mice
(In general: In xenograft studies the graft and the host belong to different species.)

The list is a part of this screen's results and no random one: it covers a few groups of compounds. Not every dose and run of a compound is shown. T/C gives the treated animals as a percentage of the vehicle group. Schedules are NCI's codes, read here as Q, the interval in days (D) or hours (H), X, the number of doses.

`CN(CCCl)CCCl`: the T/C is 190 % of control.

These data come from PubChem BioAssay AID264 (DTP/NCI, 2004).
